Data reported in patent publication US6485924B2, “Method for identifying inhibitors of cytokinesis” (Boehringer Ingelheim International GmbH, priority 1999, dated 2002).
Some of these results come from one statement about several compounds together. At least one compound was matched to its structure with a doubt left.

Biological target: T1, XSepA (Xenopus laevis, UniProt Q9DE33)
T1 construct: made in house; host or cells: E. coli BL21(DE3)
T1 sequence (Q9DE33 1-356): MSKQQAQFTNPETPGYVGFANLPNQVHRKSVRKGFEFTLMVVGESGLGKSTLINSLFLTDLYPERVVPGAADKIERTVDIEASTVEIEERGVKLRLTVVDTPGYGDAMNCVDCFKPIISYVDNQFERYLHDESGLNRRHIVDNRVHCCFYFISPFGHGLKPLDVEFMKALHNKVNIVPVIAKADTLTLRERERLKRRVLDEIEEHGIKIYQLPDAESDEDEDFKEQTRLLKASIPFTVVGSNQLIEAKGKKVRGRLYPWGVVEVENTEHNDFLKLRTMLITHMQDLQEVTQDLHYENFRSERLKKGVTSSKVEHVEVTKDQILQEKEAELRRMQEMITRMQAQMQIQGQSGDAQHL
Test: Filament assembly / polymerization followed by immunofluorescence microscopy
Format: biochemical
Conditions: XSepA incubated with nucleotide for 30 minutes
Description: Polymerization reactions were carried out in S-buffer in the presence of 5 mM MgCl2 and GTP, GTP-γ-S, GDP or ATP (Gibco). Before nucleotide addition, all samples were pre-cleared in an ultracentrifuge (see below). Aliquots of the reaction were diluted to a final septin concentration of 3.3 μg/ml, and 100 μl drops spotted on glass coverslips for 1 min. Before use, coverslips were soaked with an acetone solution of 0.5% 3-aminopropyltriethoxy-silane (Sigma), washed in acetone and air-dried. Following sample application, the coverslips were washed with 2 ml S-buffer, fixed in cold methanol for 10 min and stained with a polyclonal rabbit antibody raised against an N-terminal peptide of XSepA (M. Glotzer and T. Hyman, in preparation). Secondary antibodies were DTAF-coupled anti-rabbit (Dianova). Images were acquired using a Zeiss Axioplan II microscope and Adobe Photoshop software. […]
To gain insight into the polymerization mechanism of XSepA, the kinetics of the filament formation reaction was followed using immunofluorescence microscopy. […] For each time point, individual septin filaments were counted and their lengths measured. […] Immunofluorescence images were acquired as described and the length of the filaments was measured (see Methods section). […]

Compound: Nc1nc2c(ncn2[C@@H]2O[C@H](COP(=O)(O)OP(=O)(O)OP(O)(O)=S)[C@@H](O)[C@H]2O)c(=O)[nH]1 [GTP-γ-S]
- length of filamentous structures observed: up to 7 μm
